In US20170306005A1 (NASCIENT, published 2017):
Results are given in words; binding and its absence hold for the method and conditions named.

Tests used:
[1] = molecular target: FIBRINOGEN (Kennedy Institute of Rheumatology); assay: western blot, reducing SDS-PAGE
[2] = molecular target: FIBRINOGEN (Kennedy Institute of Rheumatology); assay: condition: 500 ng of target per lane; antibody 0.25 ug/ml; western blot, 10% SDS-PAGE under reducing conditions, nitrocellulose; B12 IgG4 MAb 1:20,000 overnight at 4 C; 5 min exposure

B1: B12 human IgG4 (antibody, V domains shown)
VH: QVQLVESGGGLVQPGRSLRLSCAASGFTFDDYAMHWVRQAPGKGLEWVSGISGSGGSTYYADSVKGRFTISRDNAKNSLYLQMNSLRAEDTALYYCAKDISAVPDTFDIWGQGTMVTVSS
VL: DIQMTQSPASLPTPVGDRVTITCRASQYIQGFLNWYQQKPGKAPKLLIYDASNLETGVPSRFSGSGSGTDFTLTISSLQPEDFATYYCQQSYSTPQTFGQGTKVDIKR
notes: human IgG4 with hinge S241P; also called B12 parent; B12-hIgG4
binding [1]: no binding (tested: 0.25 ug/ml)
binding [2]: no binding
